Assay results reported in paper PMC11096359.
Results are given in words; binding and its absence hold for the method and conditions named. In cells and extracts the contact can be indirect. These calls come from enrichment with a bait or labelling near it, and not all partners need be listed.

Chains of the proteins cited; added tags and fusions are not shown.
UniProt Q13283: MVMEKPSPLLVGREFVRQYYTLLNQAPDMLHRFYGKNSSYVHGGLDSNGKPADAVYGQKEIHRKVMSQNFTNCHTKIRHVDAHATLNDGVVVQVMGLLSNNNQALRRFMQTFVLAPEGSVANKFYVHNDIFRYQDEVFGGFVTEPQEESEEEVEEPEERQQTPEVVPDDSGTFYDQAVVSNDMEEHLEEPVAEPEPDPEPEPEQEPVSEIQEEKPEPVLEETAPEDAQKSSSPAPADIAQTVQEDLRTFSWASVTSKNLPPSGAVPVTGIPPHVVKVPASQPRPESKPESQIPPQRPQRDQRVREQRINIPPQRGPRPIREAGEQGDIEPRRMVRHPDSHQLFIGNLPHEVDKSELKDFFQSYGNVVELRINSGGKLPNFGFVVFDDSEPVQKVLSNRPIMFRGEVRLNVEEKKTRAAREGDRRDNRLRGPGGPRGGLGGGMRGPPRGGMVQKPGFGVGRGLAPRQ
UniProt Q14258: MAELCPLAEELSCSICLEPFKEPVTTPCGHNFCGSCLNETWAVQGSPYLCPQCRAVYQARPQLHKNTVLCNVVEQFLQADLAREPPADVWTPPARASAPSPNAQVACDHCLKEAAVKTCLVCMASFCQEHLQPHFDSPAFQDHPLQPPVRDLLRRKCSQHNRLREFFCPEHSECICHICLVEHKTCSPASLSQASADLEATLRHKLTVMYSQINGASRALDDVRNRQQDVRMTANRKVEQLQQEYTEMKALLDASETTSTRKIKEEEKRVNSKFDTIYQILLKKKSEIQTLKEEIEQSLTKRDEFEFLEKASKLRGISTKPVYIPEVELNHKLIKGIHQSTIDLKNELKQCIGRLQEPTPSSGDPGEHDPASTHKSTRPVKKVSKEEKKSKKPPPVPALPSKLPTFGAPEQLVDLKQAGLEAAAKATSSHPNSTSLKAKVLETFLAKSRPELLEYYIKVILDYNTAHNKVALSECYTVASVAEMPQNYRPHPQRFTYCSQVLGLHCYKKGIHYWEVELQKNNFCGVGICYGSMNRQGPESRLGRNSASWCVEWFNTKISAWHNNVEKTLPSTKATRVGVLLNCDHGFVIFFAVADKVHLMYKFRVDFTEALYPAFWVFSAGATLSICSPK
UniProt Q7Z2W4: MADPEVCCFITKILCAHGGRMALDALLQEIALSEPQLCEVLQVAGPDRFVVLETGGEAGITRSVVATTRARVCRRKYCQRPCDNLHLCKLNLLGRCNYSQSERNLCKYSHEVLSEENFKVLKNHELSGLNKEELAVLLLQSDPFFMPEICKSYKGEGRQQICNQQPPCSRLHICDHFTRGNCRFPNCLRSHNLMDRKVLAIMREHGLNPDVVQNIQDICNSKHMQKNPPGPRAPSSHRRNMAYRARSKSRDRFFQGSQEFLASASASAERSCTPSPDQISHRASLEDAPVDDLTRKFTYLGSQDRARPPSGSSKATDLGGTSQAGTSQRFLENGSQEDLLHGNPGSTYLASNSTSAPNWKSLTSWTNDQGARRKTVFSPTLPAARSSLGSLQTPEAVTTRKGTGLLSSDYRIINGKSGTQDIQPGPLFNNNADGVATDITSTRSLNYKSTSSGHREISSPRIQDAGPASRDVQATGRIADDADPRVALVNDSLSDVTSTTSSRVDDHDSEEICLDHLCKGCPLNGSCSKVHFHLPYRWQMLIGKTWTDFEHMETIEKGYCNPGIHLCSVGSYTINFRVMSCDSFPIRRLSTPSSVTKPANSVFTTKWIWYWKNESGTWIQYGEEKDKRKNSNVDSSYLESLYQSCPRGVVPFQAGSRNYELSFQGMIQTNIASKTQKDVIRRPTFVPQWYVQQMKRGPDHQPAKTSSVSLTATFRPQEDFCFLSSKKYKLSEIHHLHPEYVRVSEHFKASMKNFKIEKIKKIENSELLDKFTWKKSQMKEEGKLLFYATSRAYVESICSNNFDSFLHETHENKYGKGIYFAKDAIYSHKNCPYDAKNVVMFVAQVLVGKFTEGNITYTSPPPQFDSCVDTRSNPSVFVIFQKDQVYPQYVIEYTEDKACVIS
UniProt Q9UBN7: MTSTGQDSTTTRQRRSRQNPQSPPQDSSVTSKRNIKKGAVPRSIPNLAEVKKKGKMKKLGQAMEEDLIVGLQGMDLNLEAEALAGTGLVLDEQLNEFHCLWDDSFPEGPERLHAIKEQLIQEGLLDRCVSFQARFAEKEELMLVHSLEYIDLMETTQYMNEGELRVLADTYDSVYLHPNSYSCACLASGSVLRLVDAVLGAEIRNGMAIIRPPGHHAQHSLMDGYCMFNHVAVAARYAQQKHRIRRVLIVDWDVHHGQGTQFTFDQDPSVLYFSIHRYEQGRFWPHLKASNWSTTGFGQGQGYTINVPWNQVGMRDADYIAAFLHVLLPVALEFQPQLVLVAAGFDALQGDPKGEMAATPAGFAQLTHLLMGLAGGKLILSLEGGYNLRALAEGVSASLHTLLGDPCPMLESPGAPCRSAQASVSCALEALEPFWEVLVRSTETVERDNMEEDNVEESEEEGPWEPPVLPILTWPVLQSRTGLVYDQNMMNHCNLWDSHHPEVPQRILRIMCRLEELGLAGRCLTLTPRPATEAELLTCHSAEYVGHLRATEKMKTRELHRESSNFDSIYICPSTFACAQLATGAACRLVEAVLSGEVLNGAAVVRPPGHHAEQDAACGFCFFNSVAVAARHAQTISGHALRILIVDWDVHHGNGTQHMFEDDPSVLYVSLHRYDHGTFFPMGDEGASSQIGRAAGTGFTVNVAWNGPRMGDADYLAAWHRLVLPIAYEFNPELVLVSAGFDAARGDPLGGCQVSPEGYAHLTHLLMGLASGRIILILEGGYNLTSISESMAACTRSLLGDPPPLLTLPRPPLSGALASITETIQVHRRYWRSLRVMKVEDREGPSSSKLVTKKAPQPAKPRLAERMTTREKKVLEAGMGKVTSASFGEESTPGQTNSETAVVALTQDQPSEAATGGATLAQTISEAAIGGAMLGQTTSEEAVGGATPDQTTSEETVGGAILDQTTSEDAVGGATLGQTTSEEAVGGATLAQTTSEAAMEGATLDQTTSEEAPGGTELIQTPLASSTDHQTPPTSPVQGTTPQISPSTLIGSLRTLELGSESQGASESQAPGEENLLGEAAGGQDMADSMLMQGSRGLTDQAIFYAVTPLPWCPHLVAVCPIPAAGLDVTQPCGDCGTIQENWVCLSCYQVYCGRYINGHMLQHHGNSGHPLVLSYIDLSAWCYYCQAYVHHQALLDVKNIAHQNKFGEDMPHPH
UniProt Q9Y6M1: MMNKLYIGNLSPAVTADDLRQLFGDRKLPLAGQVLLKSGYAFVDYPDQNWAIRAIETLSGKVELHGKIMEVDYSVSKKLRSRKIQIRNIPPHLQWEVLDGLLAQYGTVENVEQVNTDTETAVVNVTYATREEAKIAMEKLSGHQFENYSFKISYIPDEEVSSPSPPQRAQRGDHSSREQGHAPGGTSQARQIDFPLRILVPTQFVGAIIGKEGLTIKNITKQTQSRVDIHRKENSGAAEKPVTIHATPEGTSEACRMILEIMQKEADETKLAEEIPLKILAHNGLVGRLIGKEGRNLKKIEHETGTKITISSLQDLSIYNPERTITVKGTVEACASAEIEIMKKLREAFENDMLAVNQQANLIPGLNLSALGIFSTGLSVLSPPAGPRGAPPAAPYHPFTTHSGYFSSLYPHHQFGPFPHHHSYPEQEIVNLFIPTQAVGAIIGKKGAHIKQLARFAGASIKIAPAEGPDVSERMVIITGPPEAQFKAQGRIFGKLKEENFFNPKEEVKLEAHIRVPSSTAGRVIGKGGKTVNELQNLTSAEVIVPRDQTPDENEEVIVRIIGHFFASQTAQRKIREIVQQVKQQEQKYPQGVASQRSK
UniProt O00571: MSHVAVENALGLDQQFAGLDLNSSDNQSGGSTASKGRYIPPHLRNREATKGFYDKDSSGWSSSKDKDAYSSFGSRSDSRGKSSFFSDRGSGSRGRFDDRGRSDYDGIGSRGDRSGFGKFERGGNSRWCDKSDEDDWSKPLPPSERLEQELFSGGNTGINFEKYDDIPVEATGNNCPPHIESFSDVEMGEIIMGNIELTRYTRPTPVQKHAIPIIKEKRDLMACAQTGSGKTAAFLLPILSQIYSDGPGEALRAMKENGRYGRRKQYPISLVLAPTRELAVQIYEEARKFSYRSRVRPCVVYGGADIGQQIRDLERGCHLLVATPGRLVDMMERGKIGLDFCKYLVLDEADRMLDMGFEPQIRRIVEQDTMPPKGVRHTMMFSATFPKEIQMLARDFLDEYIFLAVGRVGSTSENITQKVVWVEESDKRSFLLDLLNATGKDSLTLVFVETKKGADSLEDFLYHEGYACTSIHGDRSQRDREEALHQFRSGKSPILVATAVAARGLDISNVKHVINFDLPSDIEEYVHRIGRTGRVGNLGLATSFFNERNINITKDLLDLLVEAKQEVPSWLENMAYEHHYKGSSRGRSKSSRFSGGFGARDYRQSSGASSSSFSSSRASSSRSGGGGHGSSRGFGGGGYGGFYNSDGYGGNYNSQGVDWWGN

Assays:
G3BP1-BirA* (human) [1] = target: G3BP1-BirA* (human) (UniProt Q13283); assay: proximity labelling; G3BP1-BirA* in HEK293T, poly(I:C) versus untreated, 500 μM biotin, streptavidin beads, TMT-based quantitative mass spectrometry
G3BP1-BirA* (human) [2] = target: G3BP1-BirA* (human) (UniProt Q13283); assay: proximity labelling; proximity labeling assay of TRIM25 and G3BP1 under various stress inducers (poly(I:C), osmotic stress, puromycin, CCCP, MG132, sodium arsenite, thapsigargin) (Fig. S1g)
TRIM25-BirA* (human) = TRIM25-BirA* (human) (UniProt Q14258); assay: proximity labelling; TRIM25-BirA* (WT versus ∆PTFG; poly(I:C) versus untreated) in HEK293T, 500 μM biotin, streptavidin beads, TMT-based quantitative mass spectrometry

Molecule	binding (G3BP1-BirA* (human) [1])	binding (G3BP1-BirA* (human) [2])	binding (TRIM25-BirA* (human))
endogenous TRIM25 (from UniProt Q14258 1-630)	binds	binds	–
Zinc-Finger Antiviral Protein ZC3HAV1 (from UniProt Q7Z2W4 1-902)	–	–	binds
HDAC6 (from UniProt Q9UBN7 1-1215)	binds	–	–
m6A reader IGF2BP2 (from UniProt Q9Y6M1 1-599)	–	–	binds
DDX3X (from UniProt O00571 1-662)	binds	–	–
Zinc-Finger Protein ZCCHC3 (protein, UniProt Q9NUD5 1-403) MATGGGAEEERKRGRPQLLPPARPAARGEEADGGREKMGWAQVVKNLAEKKGEFREPRPPRREEESGGGGGSAGLGGPAGLAAPDLGDFPPAGRGDPKGRRRDPAGEAVDPRKKKGAAEAGRRKKAEAAAAAMATPARPGEAEDAAERPLQDEPAAAAGPGKGRFLVRICFQGDEGACPTRDFVVGALILRSIGMDPSDIYAVIQIPGSREFDVSFRSAEKLALFLRVYEEKREQEDCWENFVVLGRSKSSLKTLFILFRNETVDVEDIVTWLKRHCDVLAVPVKVTDRFGIWTGEYKCEIELRQGEGGVRHLPGAFFLGAERGYSWYKGQPKTCFKCGSRTHMSGSCTQDRCFRCGEEGHLSPYCRKGIVCNLCGKRGHAFAQCPKAVHNSVAAQLTGVAGH	–	–	binds
